Test results as given in patent US20150110766A1 (UNIVERSITY ULM, published 2015).
Results are given in words; binding and its absence hold for the method and conditions named. Binding calls can cover weak binding; strength is not graded here.

Molecular target: iC3b
Assay: SPR, analyte over iC3b surface

B1: mini-FH (designed binder)
chain: EDCNELPPRRNTEILTGSWSDQTYPEGTQAIYKCRPGYRSLGNIIMVCRKGEWVALNPLRKCQKRPCGHPGDTPFGTFTLTGGNVFEYGVKAVYTCNEGYQLLGEINYRECDTDGWTNDIPICEVVKCLPVTAPENGKIVSSAMEPDREYHFGQAVRFVCNSGYKIEGDEEMHCSDDGFWSKEKPKCVEISCKSPDVINGSPISQKIIYKENERFQYKCNMGYEYSERGDAVCTESGWRPLPSCEEAGGGGGGGGGGGGGKCGPPPPIDNGDITSFPLSVYAPASSVEYQCQNLYQLEGNKRITCRNGQWSEPPKCLHPCVISREIMENYNIALRWTAKQKLYSRTGESVEFVCKRGYRLSSRSHTLRTTCWDGKLEYPTCAKR
In the case of B1, the binding is reported as “binds”.
